Assay [1] addresses band 3 (human (endogenous in RBCs)) (UniProt P02730). Briefly: co-IP; band 3 complexes captured from 1% deoxycholate extracts of RBC membranes (short- and long-stored ECs, bags A-C) on beads coated with BRIC 6 and BRIC 170; eluates analysed by western blot (ADSL, α-adducin, flotillin-2), densitometry relative to Ponceau loading. A general note: Immunoblotting shows a protein as a band on a membrane.

Chains of the proteins cited; added tags and fusions are not shown.
UniProt P02730: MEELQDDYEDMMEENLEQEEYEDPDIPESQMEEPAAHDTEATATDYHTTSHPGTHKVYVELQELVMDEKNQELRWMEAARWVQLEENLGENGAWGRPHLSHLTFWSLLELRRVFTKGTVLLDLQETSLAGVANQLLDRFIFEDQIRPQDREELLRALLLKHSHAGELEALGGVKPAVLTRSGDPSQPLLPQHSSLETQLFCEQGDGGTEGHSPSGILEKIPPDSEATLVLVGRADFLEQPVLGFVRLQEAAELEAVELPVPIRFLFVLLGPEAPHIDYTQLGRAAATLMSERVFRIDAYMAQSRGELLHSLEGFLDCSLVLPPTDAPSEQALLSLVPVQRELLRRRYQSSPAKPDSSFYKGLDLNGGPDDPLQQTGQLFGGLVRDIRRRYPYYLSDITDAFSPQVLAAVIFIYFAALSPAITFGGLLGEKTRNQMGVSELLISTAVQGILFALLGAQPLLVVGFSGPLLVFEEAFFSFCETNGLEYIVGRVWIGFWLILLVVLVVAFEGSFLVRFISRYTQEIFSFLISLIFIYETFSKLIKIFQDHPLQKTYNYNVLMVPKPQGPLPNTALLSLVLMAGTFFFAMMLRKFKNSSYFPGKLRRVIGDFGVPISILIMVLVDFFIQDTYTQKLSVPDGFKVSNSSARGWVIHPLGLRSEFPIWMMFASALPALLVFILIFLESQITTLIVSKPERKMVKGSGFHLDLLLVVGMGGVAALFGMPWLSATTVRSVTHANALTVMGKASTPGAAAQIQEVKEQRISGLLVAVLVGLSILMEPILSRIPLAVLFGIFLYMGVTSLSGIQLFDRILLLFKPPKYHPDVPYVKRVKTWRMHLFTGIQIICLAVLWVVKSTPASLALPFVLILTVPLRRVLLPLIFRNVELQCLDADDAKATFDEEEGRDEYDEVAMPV
UniProt P35611: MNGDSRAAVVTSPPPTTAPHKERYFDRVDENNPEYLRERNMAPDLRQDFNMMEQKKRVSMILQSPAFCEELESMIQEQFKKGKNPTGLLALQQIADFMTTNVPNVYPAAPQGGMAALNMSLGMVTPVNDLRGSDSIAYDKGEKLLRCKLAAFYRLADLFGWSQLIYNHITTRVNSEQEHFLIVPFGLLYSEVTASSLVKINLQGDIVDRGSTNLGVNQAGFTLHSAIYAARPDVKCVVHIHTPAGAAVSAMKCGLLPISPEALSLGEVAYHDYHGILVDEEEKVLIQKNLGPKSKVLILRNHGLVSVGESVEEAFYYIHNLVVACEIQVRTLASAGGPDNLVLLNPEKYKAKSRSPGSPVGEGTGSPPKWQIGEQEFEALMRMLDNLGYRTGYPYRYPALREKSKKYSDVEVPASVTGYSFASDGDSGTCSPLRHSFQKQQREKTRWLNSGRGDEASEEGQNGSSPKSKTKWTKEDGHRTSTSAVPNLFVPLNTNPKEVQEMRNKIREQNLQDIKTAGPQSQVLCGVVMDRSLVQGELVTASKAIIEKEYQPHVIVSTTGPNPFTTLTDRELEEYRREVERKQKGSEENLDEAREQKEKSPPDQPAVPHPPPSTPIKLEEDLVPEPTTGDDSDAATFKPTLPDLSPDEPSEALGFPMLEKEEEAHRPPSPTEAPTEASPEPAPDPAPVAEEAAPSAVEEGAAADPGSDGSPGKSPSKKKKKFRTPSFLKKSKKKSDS

Assay [2] has the same target. As to the kind of experiment: co-IP; band 3 complexes captured from 1% deoxycholate extracts of storage-induced microvesicles (bags D-F; compared with RBCs of the same bags) on beads coated with BRIC 6 and BRIC 170; eluates analysed by western blot for flotillin-2, densitometry.

No constants are given. Whether binding was seen depends on the method and setting. Binding seen in cells or lysates may run through a third protein. Some entries that bind do so weakly or less than the wild type.

For the molecule “Alpha-adducin (from UniProt P35611 1-737)”, in assay [1], the binding result was “binds”.

B1: Adenylosuccinate lyase (enzyme, UniProt P30566 1-484)
chain: MAAGGDHGSPDSYRSPLASRYASPEMCFVFSDRYKFRTWRQLWLWLAEAEQTLGLPITDEQIQEMKSNLENIDFKMAAEEEKRLRHDVMAHVHTFGHCCPKAAGIIHLGATSCYVGDNTDLIILRNALDLLLPKLARVISRLADFAKERASLPTLGFTHFQPAQLTTVGKRCCLWIQDLCMDLQNLKRVRDDLRFRGVKGTTGTQASFLQLFEGDDHKVEQLDKMVTEKAGFKRAFIITGQTYTRKVDIEVLSVLASLGASVHKICTDIRLLANLKEMEEPFEKQQIGSSAMPYKRNPMRSERCCSLARHLMTLVMDPLQTASVQWFERTLDDSANRRICLAEAFLTADTILNTLQNISEGLVVYPKVIERRIRQELPFMATENIIMAMVKAGGSRQDCHEKIRVLSQQAASVVKQEGGDNDLIERIQVDAYFSPIHSQLDHLLDPSSFTGRASQQVQRFLEEEVYPLLKPYESVMKVKAELCL
With B1, the binding entry in assay [1] is given as “binds”.

B2: Flotillin-2 (natural protein, human (endogenous in RBCs), UniProt Q14254 1-428, looked up)
chain: MGNCHTVGPNEALVVSGGCCGSDYKQYVFGGWAWAWWCISDTQRISLEIMTLQPRCEDVETAEGVALTVTGVAQVKIMTEKELLAVACEQFLGKNVQDIKNVVLQTLEGHLRSILGTLTVEQIYQDRDQFAKLVREVAAPDVGRMGIEILSFTIKDVYDKVDYLSSLGKTQTAVVQRDADIGVAEAERDAGIREAECKKEMLDVKFMADTKIADSKRAFELQKSAFSEEVNIKTAEAQLAYELQGAREQQKIRQEEIEIEVVQRKKQIAVEAQEILRTDKELIATVRRPAEAEAHRIQQIAEGEKVKQVLLAQAEAEKIRKIGEAEAAVIEAMGKAEAERMKLKAEAYQKYGDAAKMALVLEALPQIAAKIAAPLTKVDEIVVLSGDNSKVTSEVNRLLAELPASVHALTGVDLSKIPLIKKATGVQV
notes: flotillin-2, human, SwissProt Q14254; source: endogenous, membranes of stored human RBCs and storage-induced microvesicles, 1% deoxycholate extract
On to B2, for which the binding entry in assay [2] and in assay [1] was “binds” in each case.
